Test results as given in publication doi:10.1101/2020.08.10.245050.
These are yes or no findings as the source states them, for the method shown. Each block holds one binder with its values, some of them ahead of it.

Legend:
[1] = molecular target: ACR4^WD40, isolated β-propeller (WD40) domain of ACR4 (residues 1 - 334) (Arabidopsis thaliana) (UniProt Q9LX29); assay: SEC
[2] = molecular target: ACR4^WD40-CRD ectodomain (residues 1 - 423) (Arabidopsis thaliana) (UniProt Q9LX29); assay: SEC

binding [1]: no binding
B1: ACR4^WD40, isolated β-propeller (WD40) domain of ACR4 (residues 1 - 334) (domain or fragment, UniProt Q9LX29 30-334)
chain: LGSMSSIAISYGEGGSVFCGLKSDGSHLVVCYGSNSAILYGTPGHLQFIGLTGGDGFMCGLLMLSHQPYCWGNSAFIQMGVPQPMTKGAEYLEVSAGDYHLCGLRKPIVGRRKNSNIISSSLVDCWGYNMTRNFVFDKQLHSLSAGSEFNCALSSKDKSVFCWGDENSSQVISLIPKEKKFQKIAAGGYHVCGILDGLESRVLCWGKSLEFEEEVTGTSTEEKILDLPPKEPLLAVVGGKFYACGIKRYDHSAVCWGFFVNRSTPAPTGIGFYDLAAGNYFTCGVLTGTSMSPVCWGLGFPASIP

binding [2]: no binding
B2: ACR4^WD40-CRD ectodomain (residues 1 - 423) (domain or fragment, UniProt Q9LX29 30-423)
chain: LGSMSSIAISYGEGGSVFCGLKSDGSHLVVCYGSNSAILYGTPGHLQFIGLTGGDGFMCGLLMLSHQPYCWGNSAFIQMGVPQPMTKGAEYLEVSAGDYHLCGLRKPIVGRRKNSNIISSSLVDCWGYNMTRNFVFDKQLHSLSAGSEFNCALSSKDKSVFCWGDENSSQVISLIPKEKKFQKIAAGGYHVCGILDGLESRVLCWGKSLEFEEEVTGTSTEEKILDLPPKEPLLAVVGGKFYACGIKRYDHSAVCWGFFVNRSTPAPTGIGFYDLAAGNYFTCGVLTGTSMSPVCWGLGFPASIPLAVSPGLCIDTPCPPGTHELSNQENSPCKFTGSHICLPCSTSCPPGMYQKSVCTERSDQVCVYNCSSCSSHDCSSNCSSSATSGGKEKG
